PubChem BioAssay AID1259314 – Drosophila RNAi Screening Center – 2017
Shown is a random part of about 3,100 deposited reagents. 289 of them (9.3%) were called active. 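Active includes both higher and lower ATP than plate average; check the z-score sign for direction.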 Unmarked entries are inactive. A plus sign joins genes that one reagent is predicted to hit. No sequences are given here. Not stated in the record: the amount of reagent.

Aim: 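Genes whose knock-down alters cell survival under toxic manganese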 (primary screen)
System: Drosophila S2R+ cells
Knock-down reagent: long dsRNA against Drosophila genes
Time to read-out: 5 days (4 days knock-down, then 1 day metal exposure)
Challenge: manganese chloride added to 15 mM for 24 hours
Measured: 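Cellular ATP measured by luciferase light, scaled to the plate mean, averaged across replicates and z-scored over plates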
Direction: mean ATP z-score: higher = more ATP than the plate average, more viable cells under manganese
Hit rule: 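Called active when the mean ATP z-score is above 1.5 or below -1.5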
Meaning of the calls: active = strong ATP change, up or down; inactive = no strong ATP change

After knock-down of Delta [DRSC16648] the results were mean ATP z-score -0.0813.
Silencing of Delta [DRSC24112] resulted in: mean ATP z-score -0.659.
Knock-down of CG6978 [DRSC18409] resulted in: mean ATP z-score -0.204.
Against CG6978 [DRSC39567], the entry reads mean ATP z-score -0.0542.
Silencing of LpR2 [DRSC13726] resulted in: mean ATP z-score 1.18.
After knock-down of LpR2 [DRSC13728], the record shows mean ATP z-score -0.553.
LpR2 [DRSC25588] showed mean ATP z-score 0.0388.
With knock-down of Mayo [DRSC14300], the record shows mean ATP z-score -0.135.
Depletion of frj [DRSC03250] resulted in: mean ATP z-score 0.276.
frj [DRSC39648] showed mean ATP z-score -0.349.
Against Lfg + asRNA:CR43468 [DRSC06853], the values are mean ATP z-score -0.322.
With knock-down of Tsp26A [DRSC03135] the results were mean ATP z-score 2.28 (active).
With knock-down of Or98a [DRSC16774], the record shows mean ATP z-score -0.398.
Or98a [DRSC26173] showed mean ATP z-score -0.97.
CG33203 [DRSC14876] gave mean ATP z-score -0.436.
Knock-down of CG33203 [DRSC23428] resulted in: mean ATP z-score -0.772.
After knock-down of JTBR [DRSC08667] the results were mean ATP z-score -0.322.
Silencing of MsR2 [DRSC08337] came out at: mean ATP z-score -0.0527.
MsR2 [DRSC22440] gave mean ATP z-score -1.29.
For MsR2 [DRSC26863], the values are mean ATP z-score -0.0522.

Individual results from the list.
MsR2 [DRSC22440], mean ATP z-score = -1.29
Entry of MsR2 [DRSC26863] under “mean ATP z-score”: -0.0522

Further reagents follow:
With knock-down of CG5888 [DRSC01929], the record shows mean ATP z-score 0.369.
After knock-down of CG5888 [DRSC28190], the screen gave mean ATP z-score 0.868.
Silencing of hrm [DRSC04853] came out at: mean ATP z-score -1.04.
Depletion of Trp1 [DRSC03465] gave: mean ATP z-score 1.31.
Against Trp1 [DRSC24685], the entry reads mean ATP z-score 0.622.
With knock-down of PGRP-LC [DRSC08980], the screen gave mean ATP z-score 0.741.
After knock-down of PGRP-LC [DRSC10416] the results were mean ATP z-score -1.05.
For PGRP-LC [DRSC10417], the entry reads mean ATP z-score -1.18.
Against PGRP-LC [DRSC28556] the deposit lists mean ATP z-score -0.992.
After knock-down of PGRP-SA [DRSC19420], the record shows mean ATP z-score -0.183.
For p24-1 [DRSC19827] the deposit lists mean ATP z-score 0.98.
Against p24-1 [DRSC26718] the deposit lists mean ATP z-score -0.158.
